Data taken from PMC5352113.

Target: T1, vascular endothelial (VE)-cadherin (human (endogenous in BLM, A375, MDA-MB-468, SKBR3)) (UniProt P33151)
T1 sequence: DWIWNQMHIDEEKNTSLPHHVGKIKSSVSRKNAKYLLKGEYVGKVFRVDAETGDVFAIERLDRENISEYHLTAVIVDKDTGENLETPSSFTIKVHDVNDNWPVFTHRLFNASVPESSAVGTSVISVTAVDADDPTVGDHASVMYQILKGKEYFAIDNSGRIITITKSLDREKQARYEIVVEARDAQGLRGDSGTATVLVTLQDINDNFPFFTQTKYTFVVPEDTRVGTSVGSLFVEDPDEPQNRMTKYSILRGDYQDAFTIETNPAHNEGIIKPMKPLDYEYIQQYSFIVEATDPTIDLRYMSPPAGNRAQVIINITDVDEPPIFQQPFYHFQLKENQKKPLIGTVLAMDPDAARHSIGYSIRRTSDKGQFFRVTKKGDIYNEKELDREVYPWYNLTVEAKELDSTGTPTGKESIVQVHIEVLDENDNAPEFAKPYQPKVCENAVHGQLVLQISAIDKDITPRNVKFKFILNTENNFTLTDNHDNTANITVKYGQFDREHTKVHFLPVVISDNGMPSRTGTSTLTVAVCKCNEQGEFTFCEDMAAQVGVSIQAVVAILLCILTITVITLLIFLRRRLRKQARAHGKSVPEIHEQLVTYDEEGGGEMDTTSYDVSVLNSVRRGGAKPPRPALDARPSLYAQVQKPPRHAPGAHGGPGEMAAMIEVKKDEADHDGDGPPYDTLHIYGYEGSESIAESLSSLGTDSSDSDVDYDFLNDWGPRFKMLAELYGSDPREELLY
Test: co-IP; 500 μg of lysate (1% Igepal, 100 mM NaCl, 2 mM MgCl2, 10% glycerol, 50 mM Tris-HCl) of BLM and MDA-MB-468 cells (Figure 3b also A375 and SKBR3), immunoprecipitated with anti-VE-cadherin, anti-α2 integrin, anti-αv integrin or control antibodies and protein G sepharose; western blot; also after siRNA against α2 or αv integrin

Row | Substance | binding
1 | Ras | binds
2 | αV integrin (human (endogenous in BLM, MDA-MB-468)) | binds

These are yes or no findings as the source states them, for the method shown. Binding seen in cells or lysates may run through a third protein. A result given as binding can be weak or reduced; the word gives no strength.
